# Source: the supplement of paper PMC3334620
# Over roughly 33,000 sequences, “E-score (-0.5 to 0.5)” has its median near -0.0059; the highest 2% begin near 0.26. The list shows a part of the results.
# Biological target: T1, Cin5 (UniProt P40917)
# T1 sequence: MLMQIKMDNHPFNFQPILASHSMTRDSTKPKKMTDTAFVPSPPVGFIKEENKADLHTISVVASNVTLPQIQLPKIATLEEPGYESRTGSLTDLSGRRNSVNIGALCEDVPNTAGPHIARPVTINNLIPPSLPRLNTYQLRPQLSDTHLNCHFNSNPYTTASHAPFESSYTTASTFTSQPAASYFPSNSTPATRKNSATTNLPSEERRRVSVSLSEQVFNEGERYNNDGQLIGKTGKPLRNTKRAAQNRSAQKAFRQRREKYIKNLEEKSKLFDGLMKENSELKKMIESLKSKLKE
# Assay: PBM E-score (8-mer binding enrichment) (E-score (-0.5 to 0.5)); higher = stronger / more preferred TF binding
# Conditions: protein concentration: 100 nM; construct: GST-full length
# Experimental: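 Universal 'all 10-mer' protein binding microarrays (Agilent AMADID 015681) probed with GST-tagged S. cerevisiae TFs (full-length or DBD) made by in vitro transcription/translation (PURExpress), about 100-200 nM. Bound TF was detected with fluorescent anti-GST. Each ungapped 8-mer (which stands for itself and its reverse complement) is scored by the PBM enrichment score (E-score), a modified Wilcoxon-Mann-Whitney statistic from -0.5 to +0.5, computed with the Universal PBM Analysis Suite. Scale: above 0.35 generally sequence-specific binding.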
row,Sequence,PBM E-score
1,CCTGGAAA,-0.0619
2,AAACGGCC,-0.123
3,CTCAGCAC,-0.0366
4,CACCAGCA,-0.0848
5,ACGCAACA,0.00103
6,GATCACCA,0.0841
7,CCGGGGTC,-0.18
8,ATCAAGGC,0.06
9,ATGGCTGG,-0.137
10,ACATCCGT,0.164
11,GATCAATC,-0.016
12,GCCAACGC,-0.149
13,AAACAGGA,0.0198
14,CAGCGCTG,0.0994
15,CCGTAGGA,-0.224
16,CCCTTTAG,-0.263
17,CTACTAGA,0.0506
18,ATCTCTCC,-0.0642
19,TAATGCAA,-0.00491
20,AAGACGAA,0.104
21,CAAATATG,0.117
22,CTAACCAG,-0.043
23,ATACGAAG,0.0767
24,AAATAAAC,0.187
25,CCGACAGC,-0.26

row,Sequence,PBM E-score
1,AAGTCTGT,0.0322
2,ACCGTTTC,0.00077
3,CTACCGTA,0.0364
4,GACCGCCC,-0.161
5,CGGGTTGC,-0.0157
6,CTACTCCC,0.0928
7,ATGATATA,0.166
8,AGGTGTAT,0.158
9,ACGGTTAC,0.0476
10,ATAGCACA,0.0731
11,CTTGGGAC,-0.0756
12,CGTAAACG,-0.0605
13,AGAGTCTC,-0.0361
14,CCGCAATC,0.101
15,AGGGGATA,0.107
16,CCTTAACA,-0.0543
17,ATTTAGTG,0.199
18,TAATAGCA,0.0415
19,ATTTCTTA,0.092
20,GCCCCCGA,-0.396
21,ACTGTTGG,-0.0947
22,AGACGAAT,0.0391
23,AAGCATCG,-0.122
24,ATCTTCCG,0.108
25,ACCGATCT,-0.0633

row,Sequence,PBM E-score
1,CGATGAAG,0.0255
2,ATACAAAT,0.22
3,GTTGATAA,0.193
4,GGCCTCCA,-0.26
5,ACGGCTTC,-0.0049
6,GAGAATGA,0.182
7,CGACCACG,0.0142
8,CTGCAGCC,-0.106
9,GTCCGCGA,-0.0143
10,ATCGCCGC,0.0528
11,AAGGTGCC,-0.125
12,AGTATGGC,0.00094
13,CTGACAAC,0.0895
14,ATCAGGAC,-0.0181
15,AGGTTTCG,0.0224
16,AAGCTGAA,0.128
17,ATCGAGTG,0.164
18,ACTTGCCG,-0.106
19,GGAGCACC,-0.257
20,GTGTGACA,-0.0861
21,GGACGGCA,-0.128
22,CGGATCGC,0.017
23,AACTTTCT,0.0623
24,ATTTCTCC,0.0831
25,ATAGTAGC,0.198

row,Sequence,PBM E-score
1,AATGCGCC,0.0821
2,CCATTTTA,0.191
3,GGAAGGCA,-0.123
4,CGTGGCCA,-0.208
5,ACGGTAAT,-0.0579
6,AGTGATTC,-0.0118
7,ACATCAGA,0.136
8,AAAGGCCC,-0.104
9,AGCATTCA,0.0341
10,GATGCATC,0.106
11,ATCCATAA,0.219
12,GGTCACAA,-0.0658
13,GTAGAGTA,0.0414
14,GTCCCAAC,-0.125
15,GACTAATC,0.18
16,ACTAATTC,0.204
17,CAAGGTGC,-0.127
18,AACCTGGC,-0.144
19,CAGTGAAG,-0.0991
20,CGAGATGA,0.0736
21,CCCCTGGC,-0.309
22,ATCTTGGG,0.13
23,AAACGCCG,0.131
24,AGTCTAAC,-0.16
25,ACCTCTGA,0.0292

row,Sequence,PBM E-score
1,GAGAGGGC,-0.412
2,ACCGAATG,-0.0712
3,GCAACACA,0.0801
4,AACCATGT,0.0944
5,CTCGCCAC,-0.0233
6,CCCAAGGA,-0.148
7,CATTTAAC,0.0886
8,GTATCGAC,0.047
9,ATTCACCG,0.172
10,CAACGGGG,-0.17
11,CCGTCAAG,-0.0292
12,AACAATAA,0.257
13,ATCACCAT,0.197
14,ATCACATC,0.117
15,AATCTGTA,0.224
16,GTCCTACA,0.0317
17,GGACGTTA,0.0206
18,ACTTGATC,0.111
19,AGCATAAG,0.16
20,AGACTGCT,-0.00887
21,AGATCTGC,0.0378
22,GCGTTCCC,-0.174
23,GGTATCCA,0.0407
24,AAACATCT,-0.0629
25,ACATCCTG,0.205

row,Sequence,PBM E-score
1,AACTAGCA,0.118
2,GTTGGTCA,0.166
3,AGTAATCG,0.262
4,AGCATTGC,-0.0653
5,ACGTTTCA,0.00593
6,GGGTACAA,-0.0689
7,CGGCAAAG,-0.00808
8,CGACCGGC,-0.0722
9,ACCATCAC,0.0626
10,GCGAACTA,0.137
11,AAAATCCA,0.246
12,AATAGGCG,0.111
13,GACTACCC,-0.127
14,CGCCTACC,-0.0803
15,AACTCTGT,0.0107
16,GCGTAAGA,0.113
17,AGCCTGTA,-0.102
18,AGACGTGC,-0.16
19,AACGGAGG,-0.138
20,ATGAGAGC,-0.0368
21,GTATGACA,0.172
22,CTTCCGCC,-0.183
23,ATCATTGA,0.178
24,GAACTTAA,-0.0267
25,AGGCACGC,-0.0834

# 49 entries from above, with bars between the fields:
row | Sequence | PBM E-score
2 | AAACGGCC | -0.123
3 | CTCAGCAC | -0.0366
4 | CACCAGCA | -0.0848
7 | CCGGGGTC | -0.18
9 | ATGGCTGG | -0.137
10 | ACATCCGT | 0.164
14 | CAGCGCTG | 0.0994
18 | ATCTCTCC | -0.0642
21 | CAAATATG | 0.117
22 | CTAACCAG | -0.043
1 | AAGTCTGT | 0.0322
2 | ACCGTTTC | 0.00077
3 | CTACCGTA | 0.0364
10 | ATAGCACA | 0.0731
20 | GCCCCCGA | -0.396
22 | AGACGAAT | 0.0391
25 | ACCGATCT | -0.0633
1 | CGATGAAG | 0.0255
4 | GGCCTCCA | -0.26
8 | CTGCAGCC | -0.106
9 | GTCCGCGA | -0.0143
12 | AGTATGGC | 0.00094
20 | GTGTGACA | -0.0861
23 | AACTTTCT | 0.0623
3 | GGAAGGCA | -0.123
5 | ACGGTAAT | -0.0579
6 | AGTGATTC | -0.0118
15 | GACTAATC | 0.18
19 | CAGTGAAG | -0.0991
20 | CGAGATGA | 0.0736
21 | CCCCTGGC | -0.309
4 | AACCATGT | 0.0944
6 | CCCAAGGA | -0.148
7 | CATTTAAC | 0.0886
8 | GTATCGAC | 0.047
12 | AACAATAA | 0.257
13 | ATCACCAT | 0.197
14 | ATCACATC | 0.117
17 | GGACGTTA | 0.0206
20 | AGACTGCT | -0.00887
3 | AGTAATCG | 0.262
6 | GGGTACAA | -0.0689
7 | CGGCAAAG | -0.00808
9 | ACCATCAC | 0.0626
13 | GACTACCC | -0.127
15 | AACTCTGT | 0.0107
18 | AGACGTGC | -0.16
19 | AACGGAGG | -0.138
23 | ATCATTGA | 0.178

# Continuation.

row,Sequence,PBM E-score
1,TTAACGAA,0.145
2,GTTTGCTA,0.0646
3,CCACTATC,-0.0477
4,GTAACATA,0.0684
5,CTTGTAGA,-0.282
6,CAGTTTCA,0.0521
7,CGTCTATC,-0.0488
8,CGAACTAG,0.0477
9,GTACCCAC,-0.0302
10,CATAGTAC,0.0648
11,GAACCCTC,-0.173
12,GGTTCCGA,0.116
13,TTCCGCAA,0.0528
14,AGGCGCAA,0.113
15,ATCCGAAG,0.073
16,ATATCCCG,0.166
17,CCCGGACG,-0.241
18,ATCACCAA,0.174
19,AGACCGCC,-0.0364
20,CCCAGAGG,-0.279
21,CGCATTTA,0.131
22,ATCCCACC,0.194
